These results are taken from PMC11670450.

Amino acid sequences for entries named in this document (tags omitted). Residues count along the entry.
UniProt P05106, residues 27-788: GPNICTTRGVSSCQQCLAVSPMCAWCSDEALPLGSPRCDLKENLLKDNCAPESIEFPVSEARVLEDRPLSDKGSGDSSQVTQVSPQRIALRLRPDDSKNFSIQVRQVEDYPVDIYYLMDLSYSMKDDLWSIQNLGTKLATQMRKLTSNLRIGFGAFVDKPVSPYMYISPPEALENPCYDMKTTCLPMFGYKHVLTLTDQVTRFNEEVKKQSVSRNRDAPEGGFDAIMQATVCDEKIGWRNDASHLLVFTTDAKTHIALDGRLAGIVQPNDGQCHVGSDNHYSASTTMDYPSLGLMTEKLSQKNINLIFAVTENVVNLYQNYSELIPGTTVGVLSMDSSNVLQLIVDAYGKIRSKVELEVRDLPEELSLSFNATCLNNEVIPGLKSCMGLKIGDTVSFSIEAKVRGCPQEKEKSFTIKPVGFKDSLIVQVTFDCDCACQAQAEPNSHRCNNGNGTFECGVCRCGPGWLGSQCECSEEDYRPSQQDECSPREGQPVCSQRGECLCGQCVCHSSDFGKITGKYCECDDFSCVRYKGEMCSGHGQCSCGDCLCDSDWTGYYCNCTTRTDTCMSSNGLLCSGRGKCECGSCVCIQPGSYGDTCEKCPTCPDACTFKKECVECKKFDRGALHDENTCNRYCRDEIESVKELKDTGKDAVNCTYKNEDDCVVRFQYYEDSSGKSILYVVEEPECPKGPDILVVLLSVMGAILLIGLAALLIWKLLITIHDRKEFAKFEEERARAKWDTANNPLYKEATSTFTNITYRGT
UniProt Q01546: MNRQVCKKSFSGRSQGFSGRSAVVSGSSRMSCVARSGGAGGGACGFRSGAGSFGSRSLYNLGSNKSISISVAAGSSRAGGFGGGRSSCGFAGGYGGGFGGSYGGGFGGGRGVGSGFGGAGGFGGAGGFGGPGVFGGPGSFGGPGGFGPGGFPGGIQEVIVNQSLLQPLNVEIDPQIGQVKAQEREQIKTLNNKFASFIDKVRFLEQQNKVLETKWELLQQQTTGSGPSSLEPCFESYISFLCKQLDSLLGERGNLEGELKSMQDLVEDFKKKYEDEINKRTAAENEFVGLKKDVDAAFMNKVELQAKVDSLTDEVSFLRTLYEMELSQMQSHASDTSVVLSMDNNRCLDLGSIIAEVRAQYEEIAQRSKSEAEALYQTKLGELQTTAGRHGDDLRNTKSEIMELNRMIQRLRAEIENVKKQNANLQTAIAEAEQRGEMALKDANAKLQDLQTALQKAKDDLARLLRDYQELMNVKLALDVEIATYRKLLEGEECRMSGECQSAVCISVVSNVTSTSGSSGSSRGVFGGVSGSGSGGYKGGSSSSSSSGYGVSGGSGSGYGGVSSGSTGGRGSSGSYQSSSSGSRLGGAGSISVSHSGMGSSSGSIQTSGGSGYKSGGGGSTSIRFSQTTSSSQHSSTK
UniProt P69905: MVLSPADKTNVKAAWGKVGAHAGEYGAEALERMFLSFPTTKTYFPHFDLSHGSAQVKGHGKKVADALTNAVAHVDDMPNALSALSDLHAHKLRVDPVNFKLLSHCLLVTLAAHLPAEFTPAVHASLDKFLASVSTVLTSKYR
UniProt Q9H583: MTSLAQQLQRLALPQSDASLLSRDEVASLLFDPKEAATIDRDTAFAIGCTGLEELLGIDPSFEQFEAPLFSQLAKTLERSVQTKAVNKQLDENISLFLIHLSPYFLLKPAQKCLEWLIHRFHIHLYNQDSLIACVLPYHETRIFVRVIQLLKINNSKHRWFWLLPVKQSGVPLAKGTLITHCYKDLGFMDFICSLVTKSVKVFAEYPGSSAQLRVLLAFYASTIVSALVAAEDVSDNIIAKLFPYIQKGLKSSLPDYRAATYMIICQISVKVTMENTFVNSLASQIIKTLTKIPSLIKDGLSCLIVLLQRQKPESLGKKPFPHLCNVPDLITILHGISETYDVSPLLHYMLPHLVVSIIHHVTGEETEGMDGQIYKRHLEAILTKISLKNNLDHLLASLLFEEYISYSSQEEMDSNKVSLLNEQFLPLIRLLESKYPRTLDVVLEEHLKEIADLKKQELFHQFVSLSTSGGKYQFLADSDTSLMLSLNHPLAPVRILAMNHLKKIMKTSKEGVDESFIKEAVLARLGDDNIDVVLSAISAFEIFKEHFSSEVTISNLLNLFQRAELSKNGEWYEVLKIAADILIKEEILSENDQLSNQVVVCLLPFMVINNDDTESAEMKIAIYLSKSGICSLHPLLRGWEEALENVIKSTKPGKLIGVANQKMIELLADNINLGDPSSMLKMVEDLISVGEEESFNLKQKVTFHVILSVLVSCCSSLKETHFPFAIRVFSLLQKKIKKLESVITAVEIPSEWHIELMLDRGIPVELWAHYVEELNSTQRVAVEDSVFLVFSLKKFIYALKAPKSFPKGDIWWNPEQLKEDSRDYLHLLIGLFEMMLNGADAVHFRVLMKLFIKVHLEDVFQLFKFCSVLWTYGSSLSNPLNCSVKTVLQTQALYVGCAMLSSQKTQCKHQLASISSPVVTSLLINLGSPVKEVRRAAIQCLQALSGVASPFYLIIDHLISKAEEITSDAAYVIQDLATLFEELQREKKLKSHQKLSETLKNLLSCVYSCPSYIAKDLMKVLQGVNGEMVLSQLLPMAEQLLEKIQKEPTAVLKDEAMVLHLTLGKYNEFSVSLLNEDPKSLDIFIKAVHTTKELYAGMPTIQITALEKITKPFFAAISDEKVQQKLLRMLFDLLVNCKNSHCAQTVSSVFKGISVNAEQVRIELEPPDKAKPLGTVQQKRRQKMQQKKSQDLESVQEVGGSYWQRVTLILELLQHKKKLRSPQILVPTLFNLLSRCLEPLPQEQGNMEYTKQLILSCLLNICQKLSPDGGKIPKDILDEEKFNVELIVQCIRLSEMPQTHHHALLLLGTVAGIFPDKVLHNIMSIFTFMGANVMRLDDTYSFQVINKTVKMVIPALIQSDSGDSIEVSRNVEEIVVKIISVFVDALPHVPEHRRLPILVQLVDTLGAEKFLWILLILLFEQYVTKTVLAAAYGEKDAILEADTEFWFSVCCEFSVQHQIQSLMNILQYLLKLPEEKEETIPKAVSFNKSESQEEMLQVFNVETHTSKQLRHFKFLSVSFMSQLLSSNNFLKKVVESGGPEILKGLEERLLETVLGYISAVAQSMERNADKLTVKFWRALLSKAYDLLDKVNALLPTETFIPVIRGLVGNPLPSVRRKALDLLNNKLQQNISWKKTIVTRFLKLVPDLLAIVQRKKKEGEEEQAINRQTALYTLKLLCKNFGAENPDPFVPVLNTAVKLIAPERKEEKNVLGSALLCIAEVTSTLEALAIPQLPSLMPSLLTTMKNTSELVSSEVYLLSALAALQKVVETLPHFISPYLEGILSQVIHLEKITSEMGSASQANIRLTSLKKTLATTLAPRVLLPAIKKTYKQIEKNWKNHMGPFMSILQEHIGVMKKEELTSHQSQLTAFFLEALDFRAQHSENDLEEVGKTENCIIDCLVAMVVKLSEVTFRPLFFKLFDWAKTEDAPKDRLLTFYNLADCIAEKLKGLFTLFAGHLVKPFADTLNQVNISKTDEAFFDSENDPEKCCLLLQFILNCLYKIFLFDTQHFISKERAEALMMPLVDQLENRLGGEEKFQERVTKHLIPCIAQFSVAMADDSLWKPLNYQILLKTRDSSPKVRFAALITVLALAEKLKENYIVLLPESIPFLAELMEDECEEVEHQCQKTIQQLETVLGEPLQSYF
UniProt P69891: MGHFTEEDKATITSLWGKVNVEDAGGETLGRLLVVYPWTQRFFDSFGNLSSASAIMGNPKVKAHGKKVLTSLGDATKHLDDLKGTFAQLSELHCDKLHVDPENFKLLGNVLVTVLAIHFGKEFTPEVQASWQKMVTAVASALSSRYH
UniProt P02042: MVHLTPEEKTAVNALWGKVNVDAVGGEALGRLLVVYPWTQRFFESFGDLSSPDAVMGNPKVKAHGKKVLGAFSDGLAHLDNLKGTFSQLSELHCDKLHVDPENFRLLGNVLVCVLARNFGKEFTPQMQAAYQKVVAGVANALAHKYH
UniProt P12035: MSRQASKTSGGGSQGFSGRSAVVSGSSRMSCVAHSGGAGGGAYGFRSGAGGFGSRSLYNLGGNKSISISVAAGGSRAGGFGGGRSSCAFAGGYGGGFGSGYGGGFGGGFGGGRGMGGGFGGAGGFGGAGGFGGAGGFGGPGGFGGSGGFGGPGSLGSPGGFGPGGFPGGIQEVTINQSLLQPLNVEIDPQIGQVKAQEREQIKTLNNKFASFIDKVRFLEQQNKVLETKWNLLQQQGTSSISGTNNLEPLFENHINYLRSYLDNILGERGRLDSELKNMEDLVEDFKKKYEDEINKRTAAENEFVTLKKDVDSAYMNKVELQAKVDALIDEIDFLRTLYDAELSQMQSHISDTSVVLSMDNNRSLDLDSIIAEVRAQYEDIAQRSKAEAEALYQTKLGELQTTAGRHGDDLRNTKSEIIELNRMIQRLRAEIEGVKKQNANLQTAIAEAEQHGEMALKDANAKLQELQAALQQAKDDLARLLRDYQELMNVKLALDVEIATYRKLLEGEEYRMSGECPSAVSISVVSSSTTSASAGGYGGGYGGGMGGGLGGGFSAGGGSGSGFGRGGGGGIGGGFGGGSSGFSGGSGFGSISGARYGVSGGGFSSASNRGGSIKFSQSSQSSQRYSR
UniProt Q8TCU5, residues 24-1115: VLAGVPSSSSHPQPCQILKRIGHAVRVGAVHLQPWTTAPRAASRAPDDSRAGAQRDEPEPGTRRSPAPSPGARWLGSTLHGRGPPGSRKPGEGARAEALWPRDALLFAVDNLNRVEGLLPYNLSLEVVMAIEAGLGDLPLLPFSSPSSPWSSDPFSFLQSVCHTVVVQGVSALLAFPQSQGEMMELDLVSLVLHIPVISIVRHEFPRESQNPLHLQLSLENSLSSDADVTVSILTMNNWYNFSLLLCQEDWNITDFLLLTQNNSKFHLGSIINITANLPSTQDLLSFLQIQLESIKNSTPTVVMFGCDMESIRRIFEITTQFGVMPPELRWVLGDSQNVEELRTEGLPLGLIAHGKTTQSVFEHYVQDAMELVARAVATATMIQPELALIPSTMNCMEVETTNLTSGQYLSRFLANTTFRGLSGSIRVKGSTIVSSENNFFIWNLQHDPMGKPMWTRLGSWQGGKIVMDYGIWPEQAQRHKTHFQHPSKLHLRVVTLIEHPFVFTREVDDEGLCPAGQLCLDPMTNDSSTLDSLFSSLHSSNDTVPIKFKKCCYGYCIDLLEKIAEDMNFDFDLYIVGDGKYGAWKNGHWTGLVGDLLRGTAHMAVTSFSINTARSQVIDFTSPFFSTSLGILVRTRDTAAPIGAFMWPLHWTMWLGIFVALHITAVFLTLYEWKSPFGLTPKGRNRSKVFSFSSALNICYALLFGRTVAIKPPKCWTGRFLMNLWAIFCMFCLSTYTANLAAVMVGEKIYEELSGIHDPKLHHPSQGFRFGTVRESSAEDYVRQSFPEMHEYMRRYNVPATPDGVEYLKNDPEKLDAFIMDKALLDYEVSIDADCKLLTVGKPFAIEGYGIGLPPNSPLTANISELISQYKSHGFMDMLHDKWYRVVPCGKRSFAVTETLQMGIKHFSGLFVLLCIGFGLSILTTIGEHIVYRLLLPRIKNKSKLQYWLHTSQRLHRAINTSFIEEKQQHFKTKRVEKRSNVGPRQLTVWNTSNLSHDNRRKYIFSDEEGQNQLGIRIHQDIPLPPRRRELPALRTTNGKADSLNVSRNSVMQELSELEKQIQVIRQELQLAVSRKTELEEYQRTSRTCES
UniProt P0DPH7: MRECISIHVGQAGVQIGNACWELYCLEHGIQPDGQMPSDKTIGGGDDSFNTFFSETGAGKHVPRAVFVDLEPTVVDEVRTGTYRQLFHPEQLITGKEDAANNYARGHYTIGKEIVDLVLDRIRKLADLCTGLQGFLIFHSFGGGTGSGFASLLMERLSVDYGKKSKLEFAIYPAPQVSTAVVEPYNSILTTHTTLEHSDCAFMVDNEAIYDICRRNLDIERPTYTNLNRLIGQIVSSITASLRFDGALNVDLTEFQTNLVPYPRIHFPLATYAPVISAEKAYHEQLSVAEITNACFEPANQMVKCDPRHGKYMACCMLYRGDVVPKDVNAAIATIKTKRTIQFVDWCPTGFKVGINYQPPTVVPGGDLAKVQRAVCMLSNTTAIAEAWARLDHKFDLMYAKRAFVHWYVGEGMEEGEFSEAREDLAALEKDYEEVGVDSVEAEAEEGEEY
UniProt P02675, residues 45-491: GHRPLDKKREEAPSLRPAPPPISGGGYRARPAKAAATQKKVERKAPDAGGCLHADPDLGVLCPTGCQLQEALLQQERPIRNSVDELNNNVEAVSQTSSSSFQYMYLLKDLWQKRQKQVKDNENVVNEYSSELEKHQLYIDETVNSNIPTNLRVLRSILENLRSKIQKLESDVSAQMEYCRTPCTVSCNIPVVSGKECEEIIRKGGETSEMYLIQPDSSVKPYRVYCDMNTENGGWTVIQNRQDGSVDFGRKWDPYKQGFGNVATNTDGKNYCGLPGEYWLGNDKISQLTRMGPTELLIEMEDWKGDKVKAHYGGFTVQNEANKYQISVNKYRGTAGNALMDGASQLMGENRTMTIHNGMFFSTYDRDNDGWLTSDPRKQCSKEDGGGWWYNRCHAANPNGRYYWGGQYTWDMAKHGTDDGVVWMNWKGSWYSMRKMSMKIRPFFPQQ

Results are given in words; binding and its absence hold for the method and conditions named. In cells and extracts the contact can be indirect. Here binding means that the protein was enriched with, or labelled near, the bait; the list need not be complete.

The assay has as its target Integrin beta-3 (human (endogenous in HTR-8/SVneo)) (UniProt P05106). The experiment in a line: affinity purification with mass spectrometry; HTR-8/SVneo cell lysate incubated with anti-ITGB3 antibody or nonimmune IgG at 4 °C overnight, protein A/G beads, washes in TBS with 0.05% Tween-20, glycine pH 2.7 elution; SDS-PAGE, silver stain, in-gel digest of the enriched band, LC-MS/MS; proteins specific to the ITGB3 group, abundance threshold > 20.

For “Keratin, type II cytoskeletal 2 oral (from UniProt Q01546 1-638)”, the binding entry is recorded as “binds”. To “Hemoglobin subunit alpha (from UniProt P69905 1-142)” belongs “binds”; to “Heat shock protein beta-1 (from UniProt P04792 1-205)”, “binds”. To “Histone H1.3 (from UniProt P16402 1-221)” belongs “binds”; to “HEAT repeat-containing protein 1 (from UniProt Q9H583 1-2144)”, “binds”. To “Serine/arginine repetitive matrix protein 2 (from UniProt Q9UQ35 1-2752)” belongs “binds”. For “Apolipoprotein E (from UniProt P02649 19-317)”, the binding result is recorded as “binds”. To “Collagen alpha-2(I) chain (from UniProt P08123 80-1119)” belongs “binds”; to “Alpha-1-antitrypsin (from UniProt P01009 25-418)”, “binds”; to “Hemoglobin subunit gamma-1 (from UniProt P69891 1-147)”, “binds”.

In the case of “E3 ubiquitin-protein ligase UBR4 (from UniProt Q5T4S7 1-5183)”, the binding result is “binds”. To “Immunoglobulin heavy constant alpha 1 (from UniProt P01876 1-398)” belongs “binds”; to “Glutamyl aminopeptidase (from UniProt Q07075 1-957)”, “binds”; to “Hemoglobin subunit delta (from UniProt P02042 1-147)”, “binds”.

“Apolipoprotein A-I (from UniProt P02647 19-267)”: the binding entry was “binds”.

As to “Keratin, type II cytoskeletal 3 (from UniProt P12035 1-628)”, the binding entry is given as “binds”. To “Keratin, type I cytoskeletal 17 (from UniProt Q04695 1-432)” belongs “binds”. To “Fer-1-like protein 6 (from UniProt Q2WGJ9 1-1857)” belongs “binds”; to “Glutamate receptor ionotropic, NMDA 3 A (from UniProt Q8TCU5 24-1115)”, “binds”. To “Tubulin alpha-3 C chain (from UniProt P0DPH7 1-450)” belongs “binds”. For “Tubulin beta-2B chain (from UniProt Q9BVA1 1-445)”, the binding entry was “binds”. To “Fibrinogen beta chain (from UniProt P02675 45-491)” belongs “binds”; to “Glyceraldehyde-3-phosphate dehydrogenase (from UniProt P04406 1-335)”, “binds”.

As to “Desmoplakin (from UniProt P15924 1-2871)”, the binding result is “binds”.

In the case of “POTE ankyrin domain family member J (from UniProt P0CG39 1-1038)”, the binding result is reported as “binds”. As to “Chromodomain-helicase-DNA-binding protein 9 (from UniProt Q3L8U1 1-2897)”, the binding result is given as “binds”.
